Assay results reported in patent US10174097B2, “Specific A-beta species-binding peptides for the therapy and/or diagnosis of Alzheimer's dementia” (Forschungszentrum Juelich GmbH, priority 2015, dated 2019).
Some of these results come from one statement about several compounds together.

Target: T1, Abeta monomers (Homo sapiens, UniProt P05067)
T1 construct: incubate with FITC Abeta monomers, oligomers, fibrils and FITC for 1 hour at room temperature
Assay: Peptide microarray, binding of FITC Abeta monomers to immobilized peptides
Conditions: FIG. 1a
Method: The procedure for identifying peptides that bind specifically to amyloid beta monomer or specifically to amyloid beta oligomers and for determining the binding specificity of peptides within the meaning of the present invention can thus be as follows. Peptide microarrays comprising various peptides immobilized on a surface, such as derivatives of D3, are each incubated with different species of Abeta (such as monomers, oligomers and fibrils) labeled with a fluorescent dye. A peptide microarray is incubated with only the fluorescent dye to serve as the control. […] The binding of the fluorescence-labeled Abeta to the immobilized peptides is detected by way of the fluorescent dye. The more Abeta binds to the peptide, the higher the fluorescence signal is. The measured fluorescence signals of the reproductions are standardized, and the […]. This avoids binding of the fluorescence-labeled Abeta via the dye. […]
Carrying out the peptide microarray: • incubate with FITC Abeta monomers, oligomers, fibrils and FITC for 1 hour at room temperature • wash: TBS-T briefly 3× (only TBS-T buffer is replaced), 3×10 minutes in a flacon, 3×H2O, 3×10 minutes • dry by way of centrifugation • The binding of the fluorescence-labeled Abeta to the immobilized peptides is detected by way of the fluorescent dye using the microarray reader FLA800 from Fuji Film. […]

With “rkr07rlvtkrnr (RKRRRLVTKRNR; D-amino acids; D-homoarginine; D-Peptide, ANK16 (with Homoarginine (D) at Position 4 instead of Arginine)) [D3 derivative; 07: D-Homoarginine]” the “Difference between the binding signal of Abeta monomers and Abeta oligomers and/or Abeta fibrils” value was no less than 1.5 rfu.

“rpr07rlhtkkkr (RPRRRLHTKKKR; D-amino acids; D-homoarginine at position 4; D-Peptide, ANK18 (with Homoarginine (D) at Position 4 instead of Arginine)) [D3 derivative; 07: D-Homoarginine]” was tested, and the “Difference between the binding signal of Abeta monomers and Abeta oligomers and/or Abeta fibrils” value was no less than 1.5 rfu.
